According to US20250269048A1 (BIVICTRIX, published 2025):
No constants are given. Whether binding was seen depends on the method and setting. Some results given as binding are weak or reduced against the parent protein; the word gives no strength.

Experiments:
human CD7 on cells [1] = target: T1, human CD7 on cells (human, UniProt P09564 26-240); experiment: flow cytometry (PE, geomean), bi-Fab then PE mouse anti-human IgG Fab; Jurkat cells and healthy-donor T cells (both CD33-/CD7+); 10 nM by legend paragraph 112, no concentration on the sheet
T1 sequence (looked up): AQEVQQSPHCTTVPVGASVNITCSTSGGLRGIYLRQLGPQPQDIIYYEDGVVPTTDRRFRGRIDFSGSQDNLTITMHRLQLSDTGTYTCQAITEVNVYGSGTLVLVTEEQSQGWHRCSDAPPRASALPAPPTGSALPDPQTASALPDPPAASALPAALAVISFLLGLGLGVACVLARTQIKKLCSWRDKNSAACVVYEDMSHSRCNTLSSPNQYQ

human CD7 on cells [2] = target: T1, human CD7 on cells; experiment: flow cytometry, bi-Fab at 10 nM (n=2) then PE mouse anti-human IgG Fab; Jurkat cells and healthy-donor T cells (both CD33-/CD7+)

binding (human CD7 on cells [1]): binds
binding (human CD7 on cells [2]): binds
B1: BVX152 (bispecific antibody)
heavy: QVQLQESGAELVKPGASVKLSCKASGYTFTSYWMHWVKQRPGQGLEWIGKINPSNGKTNYNEKFKSKATLTVDKSSSTAYMQLSSLTSEDSAVYYCARGGVYYDLYYAALDYWGQGTTVTVSSASTKGPSVFPLAPSSKSTSGGTAALGCLVKDYFPEPVTVSWNSGALTSGVHTFPAVLQSSGLYSLSSVVTVPSSSLGTQTYCCNVNHKPSNTKVDKKVEPKSCDKT
light: DIELTQSPATLSVTPGDSVSLSCRASQSISNNLHWYQQKSHESPRLLIKSASQSISGIPSRFSGSGSGTDFTLSINSVETEDFGMYFCQQSNSWPYTFGGGTKLEIKRTVAAPSVFIFPPSDEQLKSGTASVVCLLNNFYPREAKVQWKVDNALQSGNSQESVTEQDSKDSTYSLSSTLTLSKADYEKHKVYACEVTHQGLSSPVTKSFNRGEC
VH: EVQLVQSGAEVKKPGSSVKVSCKASGYTITDSNIHWVRQAPGQSLEWIGYIYPYNGGTDYNQKFKNRATLTVDNPTNTAYMELSSLRSEDTAFYYCVNGNPYLAAWGQGTLVTVSS
VL: DIQLTQSPSTLSASVGDRVTIICRASESLDNYGIRFLTWFQQKPGKAPKLLMYAASNQGSGVPSRFSGSGSGTEFTLTISSLQPDDFATYYCQQTKEVPWSFGQGTKLEIK
notes: bi-Fab; also called CD33-PP-7/CD7-PP-8
